Measurements reported in patent US20250262167A1, “COMPOUNDS, TARGETS AND PATHWAYS FOR MACROPHAGE MODULATION” (Massachusetts Institute of Technology, priority 2020, published 2025).
The name of at least one read-out is uncertain.

Test system: M0 macrophages (hMDMs)
Test: Dosage response of cell shape change on M0 macrophages
Type: cell-based, human
Conditions: Max Z-score from Michaelis-Menten equation, negative = round, positive = elongated

For Evodiamine, which “Max absolute Z-value” is on record?
Its value is −26.36.

With `C=C(NC(=O)C(=C)NC(=O)c1csc(C2=N[C@@H]3c4csc(n4)[C@H]4NC(=O)c5csc(n5)[C@H]([C@](C)(O)[C@@H](C)O)NC(=O)[C@H]5CSC(=N5)/C(=C/C)NC(=O)[C@H]([C@@H](C)O)NC(=O)c5csc(n5)[C@]3(CC2)NC(=O)[C@H](C)NC(=O)C(=C)NC(=O)[C@H](C)NC(=O)[C@H]([C@@H](C)CC)N[C@@H]2C=Cc3c([C@H](C)O)cc(nc3[C@H]2O)C(=O)O[C@@H]4C)n1)C(N)=O` [Thiostrepton] as the molecule, how does the “Max absolute Z-value” read?
Its value is −12.75.

Which “Max absolute Z-value” does the source give for `C[C@@]12C(=O)OC(=O)[C@]1(C)[C@H]1CC[C@@H]2O1` [Cantharidin] here?
The value was −31.36.

For `COc1ccc(S(=O)(=O)N(C(C)=O)c2ccccc2/C=C/c2cc[n+]([O-])cc2)cc1` [HMN214], which “Max absolute Z-value” is on record?
Its value is −12.51.

`CC1=C(O)C(=O)C=C2C1=CC=C1[C@@]2(C)CC[C@@]2(C)[C@@H]3C[C@](C)(C(=O)O)CC[C@]3(C)CC[C@]12C` [Celastrol] was tested. Which “Max absolute Z-value” did it give?
Its value is −4.485.
